Reference: article PMC11263355
These are yes or no findings as the source states them, for the method shown. Binding seen in cells or lysates may run through a third protein. Some results given as binding are weak or reduced against the parent protein; the word gives no strength.

Chains of the proteins cited; added tags and fusions are not shown. Residues count along the entry.
UniProt P98088, residues 28-5654: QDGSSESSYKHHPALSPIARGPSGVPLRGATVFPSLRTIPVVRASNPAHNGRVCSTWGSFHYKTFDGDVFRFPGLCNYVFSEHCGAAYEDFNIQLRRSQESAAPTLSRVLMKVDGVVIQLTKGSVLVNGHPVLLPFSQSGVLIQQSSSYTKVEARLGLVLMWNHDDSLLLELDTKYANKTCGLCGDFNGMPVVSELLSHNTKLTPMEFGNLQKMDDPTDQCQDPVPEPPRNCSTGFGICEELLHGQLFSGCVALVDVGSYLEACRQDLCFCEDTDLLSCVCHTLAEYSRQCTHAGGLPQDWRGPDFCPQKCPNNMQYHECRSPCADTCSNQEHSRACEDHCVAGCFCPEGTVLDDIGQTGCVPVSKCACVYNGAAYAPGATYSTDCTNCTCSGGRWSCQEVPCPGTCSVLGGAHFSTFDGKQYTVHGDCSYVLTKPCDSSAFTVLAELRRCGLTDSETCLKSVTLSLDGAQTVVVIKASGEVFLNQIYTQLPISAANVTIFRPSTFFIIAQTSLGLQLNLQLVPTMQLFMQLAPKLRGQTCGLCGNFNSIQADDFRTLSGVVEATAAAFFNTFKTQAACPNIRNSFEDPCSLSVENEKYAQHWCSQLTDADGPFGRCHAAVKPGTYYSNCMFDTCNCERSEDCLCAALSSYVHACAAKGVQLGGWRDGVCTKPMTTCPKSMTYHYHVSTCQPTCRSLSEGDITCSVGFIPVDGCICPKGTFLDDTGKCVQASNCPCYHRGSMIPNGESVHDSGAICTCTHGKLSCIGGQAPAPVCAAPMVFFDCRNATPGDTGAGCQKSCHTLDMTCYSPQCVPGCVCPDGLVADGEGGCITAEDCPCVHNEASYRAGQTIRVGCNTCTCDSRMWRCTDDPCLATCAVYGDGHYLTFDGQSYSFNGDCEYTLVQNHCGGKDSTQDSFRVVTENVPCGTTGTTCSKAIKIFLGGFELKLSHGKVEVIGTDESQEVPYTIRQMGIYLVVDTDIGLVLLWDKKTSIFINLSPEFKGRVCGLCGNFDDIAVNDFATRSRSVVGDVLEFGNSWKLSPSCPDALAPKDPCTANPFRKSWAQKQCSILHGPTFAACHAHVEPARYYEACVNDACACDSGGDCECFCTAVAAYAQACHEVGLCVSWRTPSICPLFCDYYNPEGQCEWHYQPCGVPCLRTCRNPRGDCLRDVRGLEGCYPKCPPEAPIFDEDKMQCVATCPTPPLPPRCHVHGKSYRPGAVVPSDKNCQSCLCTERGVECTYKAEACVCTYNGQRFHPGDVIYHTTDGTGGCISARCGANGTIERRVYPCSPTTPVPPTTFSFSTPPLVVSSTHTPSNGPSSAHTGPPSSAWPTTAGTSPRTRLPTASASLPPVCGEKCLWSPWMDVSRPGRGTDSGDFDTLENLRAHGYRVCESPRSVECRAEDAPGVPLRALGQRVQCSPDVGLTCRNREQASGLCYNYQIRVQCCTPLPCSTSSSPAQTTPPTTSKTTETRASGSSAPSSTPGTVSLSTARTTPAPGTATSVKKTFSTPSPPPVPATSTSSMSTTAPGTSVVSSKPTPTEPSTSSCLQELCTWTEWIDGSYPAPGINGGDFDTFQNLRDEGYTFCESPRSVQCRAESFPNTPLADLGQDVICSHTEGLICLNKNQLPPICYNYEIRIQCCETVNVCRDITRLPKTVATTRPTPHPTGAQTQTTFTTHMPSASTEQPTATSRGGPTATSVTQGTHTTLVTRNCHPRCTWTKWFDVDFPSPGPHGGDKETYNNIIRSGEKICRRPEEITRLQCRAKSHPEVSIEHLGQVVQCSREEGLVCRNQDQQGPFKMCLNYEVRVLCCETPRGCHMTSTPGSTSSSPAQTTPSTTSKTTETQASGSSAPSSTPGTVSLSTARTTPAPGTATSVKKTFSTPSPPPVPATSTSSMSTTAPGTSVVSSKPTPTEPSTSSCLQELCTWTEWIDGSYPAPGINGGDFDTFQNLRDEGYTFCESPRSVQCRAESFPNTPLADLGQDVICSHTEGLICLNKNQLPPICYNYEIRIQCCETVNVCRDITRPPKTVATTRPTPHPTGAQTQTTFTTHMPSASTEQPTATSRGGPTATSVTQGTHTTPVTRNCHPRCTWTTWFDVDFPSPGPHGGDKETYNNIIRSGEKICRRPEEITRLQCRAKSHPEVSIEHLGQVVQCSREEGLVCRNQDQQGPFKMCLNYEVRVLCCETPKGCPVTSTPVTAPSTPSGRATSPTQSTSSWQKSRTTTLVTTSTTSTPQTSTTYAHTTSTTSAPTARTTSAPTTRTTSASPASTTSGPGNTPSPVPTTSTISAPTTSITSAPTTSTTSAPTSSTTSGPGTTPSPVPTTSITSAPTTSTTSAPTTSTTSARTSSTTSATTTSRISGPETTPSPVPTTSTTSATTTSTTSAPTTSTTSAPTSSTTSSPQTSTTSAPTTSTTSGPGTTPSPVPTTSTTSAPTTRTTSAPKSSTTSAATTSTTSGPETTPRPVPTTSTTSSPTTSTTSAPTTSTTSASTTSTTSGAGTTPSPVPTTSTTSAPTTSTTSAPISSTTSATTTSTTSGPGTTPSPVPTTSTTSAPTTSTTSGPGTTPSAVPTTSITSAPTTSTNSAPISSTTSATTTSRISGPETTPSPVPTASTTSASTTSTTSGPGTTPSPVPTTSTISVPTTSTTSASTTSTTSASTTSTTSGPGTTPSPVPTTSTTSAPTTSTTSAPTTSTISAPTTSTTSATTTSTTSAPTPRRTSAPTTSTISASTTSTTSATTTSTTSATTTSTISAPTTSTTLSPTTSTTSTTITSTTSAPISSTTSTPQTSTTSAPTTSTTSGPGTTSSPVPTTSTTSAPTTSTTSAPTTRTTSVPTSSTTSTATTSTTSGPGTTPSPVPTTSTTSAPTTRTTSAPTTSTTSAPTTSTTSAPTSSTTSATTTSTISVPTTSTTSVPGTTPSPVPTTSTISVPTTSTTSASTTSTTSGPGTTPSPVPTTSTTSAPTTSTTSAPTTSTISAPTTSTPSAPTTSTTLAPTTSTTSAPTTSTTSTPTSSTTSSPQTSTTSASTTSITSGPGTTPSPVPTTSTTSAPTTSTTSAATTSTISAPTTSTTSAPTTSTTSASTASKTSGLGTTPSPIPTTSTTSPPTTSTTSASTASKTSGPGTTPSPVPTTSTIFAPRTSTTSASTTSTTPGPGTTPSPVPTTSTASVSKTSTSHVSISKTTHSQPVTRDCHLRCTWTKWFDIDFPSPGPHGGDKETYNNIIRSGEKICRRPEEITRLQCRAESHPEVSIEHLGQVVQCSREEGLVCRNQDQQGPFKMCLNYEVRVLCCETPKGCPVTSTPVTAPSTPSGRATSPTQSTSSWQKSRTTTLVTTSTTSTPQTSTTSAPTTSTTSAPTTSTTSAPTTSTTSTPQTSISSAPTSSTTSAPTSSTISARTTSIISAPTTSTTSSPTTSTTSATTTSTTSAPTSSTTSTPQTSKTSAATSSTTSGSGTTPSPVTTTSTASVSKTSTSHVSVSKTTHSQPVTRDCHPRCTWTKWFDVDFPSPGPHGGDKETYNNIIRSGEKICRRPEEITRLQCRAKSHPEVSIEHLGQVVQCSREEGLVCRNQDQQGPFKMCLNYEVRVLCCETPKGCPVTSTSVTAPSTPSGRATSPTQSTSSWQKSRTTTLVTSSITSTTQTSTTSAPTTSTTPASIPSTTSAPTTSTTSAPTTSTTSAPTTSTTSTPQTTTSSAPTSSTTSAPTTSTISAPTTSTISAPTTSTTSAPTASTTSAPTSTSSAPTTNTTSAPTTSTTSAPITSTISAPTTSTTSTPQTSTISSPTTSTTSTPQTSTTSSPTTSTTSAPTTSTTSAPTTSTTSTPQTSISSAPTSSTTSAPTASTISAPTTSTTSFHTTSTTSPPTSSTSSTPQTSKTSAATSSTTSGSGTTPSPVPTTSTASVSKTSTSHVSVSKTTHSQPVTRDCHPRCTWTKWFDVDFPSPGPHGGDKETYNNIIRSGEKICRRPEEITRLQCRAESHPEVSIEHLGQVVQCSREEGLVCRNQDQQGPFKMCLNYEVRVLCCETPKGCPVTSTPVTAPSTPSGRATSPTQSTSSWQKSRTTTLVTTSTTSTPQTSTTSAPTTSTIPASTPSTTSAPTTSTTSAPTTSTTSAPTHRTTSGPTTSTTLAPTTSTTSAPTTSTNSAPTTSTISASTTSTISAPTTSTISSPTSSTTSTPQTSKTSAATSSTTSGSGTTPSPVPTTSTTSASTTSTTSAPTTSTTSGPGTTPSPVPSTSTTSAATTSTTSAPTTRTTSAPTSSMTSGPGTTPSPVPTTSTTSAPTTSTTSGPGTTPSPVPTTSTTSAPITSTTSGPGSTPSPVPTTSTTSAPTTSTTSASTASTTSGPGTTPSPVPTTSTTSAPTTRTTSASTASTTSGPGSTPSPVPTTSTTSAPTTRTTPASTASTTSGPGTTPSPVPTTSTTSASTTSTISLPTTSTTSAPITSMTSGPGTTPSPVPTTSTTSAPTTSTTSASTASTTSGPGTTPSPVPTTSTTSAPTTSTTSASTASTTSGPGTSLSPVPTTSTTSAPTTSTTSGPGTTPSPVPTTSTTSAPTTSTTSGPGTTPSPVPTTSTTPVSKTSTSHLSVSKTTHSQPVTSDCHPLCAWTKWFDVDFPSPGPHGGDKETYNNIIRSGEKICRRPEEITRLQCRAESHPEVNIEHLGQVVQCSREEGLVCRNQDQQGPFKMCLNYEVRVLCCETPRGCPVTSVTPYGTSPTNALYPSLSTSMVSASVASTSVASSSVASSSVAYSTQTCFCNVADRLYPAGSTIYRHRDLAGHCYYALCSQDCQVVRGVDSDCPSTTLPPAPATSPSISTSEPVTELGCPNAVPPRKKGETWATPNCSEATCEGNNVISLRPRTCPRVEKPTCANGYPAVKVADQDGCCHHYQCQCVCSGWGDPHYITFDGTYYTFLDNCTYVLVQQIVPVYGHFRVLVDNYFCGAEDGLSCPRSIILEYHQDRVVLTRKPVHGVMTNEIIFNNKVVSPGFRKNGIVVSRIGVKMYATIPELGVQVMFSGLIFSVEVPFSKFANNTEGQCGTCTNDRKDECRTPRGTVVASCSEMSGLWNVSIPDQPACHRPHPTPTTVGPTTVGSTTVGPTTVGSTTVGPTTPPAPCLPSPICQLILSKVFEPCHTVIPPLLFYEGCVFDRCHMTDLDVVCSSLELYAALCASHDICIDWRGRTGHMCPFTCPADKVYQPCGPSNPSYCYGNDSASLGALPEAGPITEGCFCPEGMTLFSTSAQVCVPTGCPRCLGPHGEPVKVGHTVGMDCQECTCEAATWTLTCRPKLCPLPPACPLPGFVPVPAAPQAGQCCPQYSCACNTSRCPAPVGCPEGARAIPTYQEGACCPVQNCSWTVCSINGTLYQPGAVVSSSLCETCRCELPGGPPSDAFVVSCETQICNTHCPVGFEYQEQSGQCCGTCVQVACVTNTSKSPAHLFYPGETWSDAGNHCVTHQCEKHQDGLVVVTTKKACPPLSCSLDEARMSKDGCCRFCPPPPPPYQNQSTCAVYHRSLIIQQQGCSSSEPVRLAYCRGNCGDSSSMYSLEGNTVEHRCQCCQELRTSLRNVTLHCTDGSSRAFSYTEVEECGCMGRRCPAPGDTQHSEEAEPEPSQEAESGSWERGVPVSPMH
UniProt P07355: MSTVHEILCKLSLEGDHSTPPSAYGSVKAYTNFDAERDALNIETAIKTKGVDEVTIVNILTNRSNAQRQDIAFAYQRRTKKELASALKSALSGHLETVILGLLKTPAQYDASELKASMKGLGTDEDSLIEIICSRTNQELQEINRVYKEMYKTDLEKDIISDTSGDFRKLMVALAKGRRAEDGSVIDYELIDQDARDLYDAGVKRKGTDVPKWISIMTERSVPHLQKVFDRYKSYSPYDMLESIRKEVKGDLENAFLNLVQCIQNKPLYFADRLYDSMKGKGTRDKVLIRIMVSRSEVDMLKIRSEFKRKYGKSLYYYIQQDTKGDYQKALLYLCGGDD

Molecular target: Mucin 5ac (MUC5AC) (human (endogenous in A549-BrM)) (UniProt P98088)
Test: co-IP; IP and reciprocal IP from 500 ug lysate of A549-BrM.scr and A549-BrM5AC.sh1 cells, overnight with anti-MUC5AC (CLH2) or anti-ANXA2 antibody (2 ug), Protein A/G agarose beads 4 h at 4 °C; 2% SDS agarose gel and blot

binding: binds
Substance: Annexin A2 (ANXA2) (from UniProt P07355 1-339)
